# Test results published in the supplement of paper PMC8728848.
# Some of the results follow.
# B1: AntigenI/IIC123 (Streptococcus mutans), C9E3B4 (protein)
# chain: MASMTGGQQMGRIHFHYFKLAVQPQVNKEIRNNNDINIDRTLVAKQSVVKFQLKTADLPAGRDETTSFVLVDPLPSGYQFNPEATKAASPGFDVTYDNATNTVTFKATAATLATFNADLTKSVATIYPTVVGQVLNDGATYKNNFTLTVNDAYGIKSNVVRVTTPGKPNDPDNPNNNYIKPTKVNKNENGVVIDGKTVLAGSTNYYELTWDLDQYKNDRSSADTIQKGFYYVDDYPEEALELRQDLVKITDANGNEVTGVSVDNYTNLEAAPQEIRDVLSKAGIRPKGAFQIFRADNPREFYDTYVKTGIDLKIVSPMVVKKQMGQTGGSYENQAYQIDFGNGYASNIIINNVPKINPKKDVTLTLDPADTNNVDGQTIPLNTVFNYRLIGGIIPADHSEELFEYNFYDDYDQTGDHYTGQYKVFAKVDITFKDGSIIKSGAELTQYTTAEVDTAKGAITIKFKEAFLRSVSIDSAFQAESYIQMKRIAVGTFENTYINTVNGVTYSSLEHHHHHH
# Key:
# Assay in all cases: glycan array binding signal (z-score within array); higher = stronger binding
# Settings in all cases: glycan notation: IUPAC condensed, linker removed
# [1] = biological target: Gal(a1-3)[Gal(a1-4)]Gal(b1-4)GlcNAc
# Outline: (§1)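 The binding signal is a Z-score computed within each array. Data were drawn from 3228 arrays in the Consortium for Functional Glycomics database, restricted to those with a known protein sequence. Scores were averaged over arrays of the same protein sequence at different concentrations or buffers, and over linkers, and negative values can be taken as non-binding.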
# [2] = biological target: Gal(a1-4)Gal(b1-3)GlcNAc(b1-2)Man(a1-3)[Gal(a1-4)Gal(b1-3)GlcNAc(b1-2)Man(a1-6)]Man(b1-4)GlcNAc(b1-4)GlcNAc
# Outline: as §1
# [3] = biological target: Gal(a1-4)Gal(b1-4)Glc
# Outline: as §1
# [4] = biological target: Gal(a1-4)Gal(b1-4)GlcNAc
# Outline: as §1
# [5] = biological target: Gal(a1-4)Gal(b1-4)GlcNAc(b1-2)Man(a1-3)[Gal(a1-4)Gal(b1-4)GlcNAc(b1-2)Man(a1-6)]Man(b1-4)GlcNAc(b1-4)GlcNAc
# Outline: as §1
# [6] = biological target: Gal(a1-4)Gal(b1-4)GlcNAc(b1-3)Gal(b1-4)Glc
# Outline: as §1
# [7] = biological target: Gal(a1-4)GlcNAc
# Outline: as §1
# [8] = biological target: Gal(a1-6)Glc
# Outline: as §1
# [9] = biological target: Gal(b1-2)Gal
# Outline: as §1
# [10] = biological target: Gal(b1-3)Gal
# Outline: as §1
# [11] = biological target: Gal(b1-3)Gal(b1-4)GlcNAc
# Outline: as §1
# [12] = biological target: Gal(b1-3)GalNAc
# Outline: as §1
# [13] = biological target: Gal(b1-3)GalNAc(a1-3)[Fuc(a1-2)]Gal(b1-4)Glc
# Outline: as §1
# [14] = biological target: Gal(b1-3)GalNAc(a1-3)[Fuc(a1-2)]Gal(b1-4)GlcNAc
# Outline: as §1
# [15] = biological target: Gal(b1-3)GalNAc(b1-3)Gal
# Outline: as §1
# [16] = biological target: Gal(b1-3)GalNAc(b1-3)Gal(a1-4)Gal(b1-4)Glc
# Outline: as §1
# [17] = biological target: Gal(b1-3)GalNAc(b1-4)Gal(b1-4)Glc
# Outline: as §1
# [18] = biological target: Gal(b1-3)GalNAc(b1-4)[Neu5Ac(a2-3)]Gal(b1-4)Glc
# Outline: as §1
# [19] = biological target: Gal(b1-3)GlcNAc
# Outline: as §1
# [20] = biological target: Gal(b1-3)GlcNAc(a1-3)Gal(b1-4)GlcNAc
# Outline: as §1
# [21] = biological target: Gal(b1-3)GlcNAc(a1-6)Gal(b1-4)GlcNAc
# Outline: as §1
# [22] = biological target: Gal(b1-3)GlcNAc(b1-2)Man
# Outline: as §1
# [23] = biological target: Gal(b1-3)GlcNAc(b1-2)Man(a1-3)[Gal(b1-3)GlcNAc(b1-2)Man(a1-6)]Man(b1-4)GlcNAc(b1-4)GlcNAc
# Outline: as §1
# [24] = biological target: Gal(b1-3)GlcNAc(b1-2)Man(a1-3)[Gal(b1-3)GlcNAc(b1-2)Man(a1-6)]Man(b1-4)GlcNAc(b1-4)[Fuc(a1-6)]GlcNAc
# Outline: as §1
# [25] = biological target: Gal(b1-3)GlcNAc(b1-2)Man(a1-3)[GlcNAc(b1-4)][Gal(b1-3)GlcNAc(b1-2)Man(a1-6)]Man(b1-4)GlcNAc(b1-4)GlcNAc
# Outline: as §1
# [26] = biological target: Gal(b1-3)GlcNAc(b1-2)[Gal(b1-3)GlcNAc(b1-6)]Man(a1-6)[Gal(b1-3)GlcNAc(b1-2)Man(a1-3)]Man(b1-4)GlcNAc(b1-4)GlcNAc
# Outline: as §1
# [27] = biological target: Gal(b1-3)GlcNAc(b1-3)Gal(b1-3)GlcNAc
# Outline: as §1
# [28] = biological target: Gal(b1-3)GlcNAc(b1-3)Gal(b1-4)Glc
# Outline: as §1
# [29] = biological target: Gal(b1-3)GlcNAc(b1-3)Gal(b1-4)GlcNAc
# Outline: as §1
# [30] = biological target: Gal(b1-3)GlcNAc(b1-3)Gal(b1-4)GlcNAc(b1-2)Man(a1-3)[Gal(b1-3)GlcNAc(b1-3)Gal(b1-4)GlcNAc(b1-2)Man(a1-6)]Man(b1-4)GlcNAc(b1-4)GlcNAc
# Outline: as §1
# [31] = biological target: Gal(b1-3)GlcNAc(b1-3)Gal(b1-4)GlcNAc(b1-2)[Gal(b1-3)GlcNAc(b1-3)Gal(b1-4)GlcNAc(b1-6)]Man(a1-6)[Gal(b1-3)GlcNAc(b1-3)Gal(b1-4)GlcNAc(b1-2)Man(a1-3)]Man(b1-4)GlcNAc(b1-4)[Fuc(a1-6)]GlcNAc
# Outline: as §1
# [32] = biological target: Gal(b1-3)GlcNAc(b1-3)Gal(b1-4)GlcNAc(b1-3)Gal(b1-4)GlcNAc(b1-2)[Gal(b1-3)GlcNAc(b1-3)Gal(b1-4)GlcNAc(b1-3)Gal(b1-4)GlcNAc(b1-6)]Man(a1-6)[Gal(b1-3)GlcNAc(b1-3)Gal(b1-4)GlcNAc(b1-3)Gal(b1-4)GlcNAc(b1-2)Man(a1-3)]Man(b1-4)GlcNAc(b1-4)[Fuc(a1-6)]GlcNAc
# Outline: as §1
# [33] = biological target: Gal(b1-3)GlcNAc(b1-3)Gal(b1-4)GlcNAc(b1-6)[Gal(b1-3)GlcNAc(b1-3)]Gal(b1-4)Glc
# Outline: as §1
# [34] = biological target: Gal(b1-3)GlcNAc(b1-3)Gal(b1-4)[Fuc(a1-3)]GlcNAc
# Outline: as §1
# [35] = biological target: Gal(b1-3)GlcNAc(b1-3)Gal(b1-4)[Fuc(a1-3)]GlcNAc(b1-6)[Gal(b1-3)GlcNAc(b1-3)]Gal(b1-4)Glc
# Outline: as §1
# [36] = biological target: Gal(b1-3)GlcNAc(b1-3)GalNAc
# Outline: as §1
# [37] = biological target: Gal(b1-3)GlcNAc(b1-6)Gal(b1-4)GlcNAc
# Outline: as §1
# [38] = biological target: Gal(b1-3)GlcNAc(b1-6)GalNAc
# Outline: as §1
binder,measurement,setting,value
B1,glycan array binding signal (z-score),[1],-0.033
same,glycan array binding signal (z-score),[2],0.406
same,glycan array binding signal (z-score),[3],-0.27
same,glycan array binding signal (z-score),[4],0.444
same,glycan array binding signal (z-score),[5],-0.485
same,glycan array binding signal (z-score),[6],-0.714
same,glycan array binding signal (z-score),[7],-0.557
same,glycan array binding signal (z-score),[8],-0.653
same,glycan array binding signal (z-score),[9],-0.762
same,glycan array binding signal (z-score),[10],-1.1
same,glycan array binding signal (z-score),[11],0.338
same,glycan array binding signal (z-score),[12],-0.062
same,glycan array binding signal (z-score),[13],-0.468
same,glycan array binding signal (z-score),[14],-0.841
same,glycan array binding signal (z-score),[15],-0.382
same,glycan array binding signal (z-score),[16],-0.393
same,glycan array binding signal (z-score),[17],0.016
same,glycan array binding signal (z-score),[18],-0.777
same,glycan array binding signal (z-score),[19],-0.67
same,glycan array binding signal (z-score),[20],-0.666
same,glycan array binding signal (z-score),[21],-1.82
same,glycan array binding signal (z-score),[22],-0.078
same,glycan array binding signal (z-score),[23],1.89
same,glycan array binding signal (z-score),[24],1.19
same,glycan array binding signal (z-score),[25],-0.382
same,glycan array binding signal (z-score),[26],1.06
same,glycan array binding signal (z-score),[27],-0.162
same,glycan array binding signal (z-score),[28],0.287
same,glycan array binding signal (z-score),[29],-0.59
same,glycan array binding signal (z-score),[30],-0.721
same,glycan array binding signal (z-score),[31],1.32
same,glycan array binding signal (z-score),[32],1.18
same,glycan array binding signal (z-score),[33],-0.366
same,glycan array binding signal (z-score),[34],-0.941
same,glycan array binding signal (z-score),[35],-0.418
same,glycan array binding signal (z-score),[36],-0.623
same,glycan array binding signal (z-score),[37],-0.051
same,glycan array binding signal (z-score),[38],-0.118

# An excerpt of these results, tab-delimited:
binder	measurement	setting	value
B1	glycan array binding signal (z-score)	[24]	1.19
same	glycan array binding signal (z-score)	[37]	-0.051
